Measurements published in PMC7887271, “Fast acting allosteric phosphofructokinase inhibitors block trypanosome glycolysis and cure acute African trypanosomiasis in mice” (Nature Communications, 2021).
Where “and” joins values, the source holds several entries; their conditions need not be identical. Equal values may be shown once. The source gives many values for each of these; only a part stands here.

Target: T1, TbPFK (Trypanosoma brucei brucei, UniProt O15648)
T1 construct: made in house; host or cells: Escherichia coli C41 (pET28a, codon optimised gene)
T1 sequence (O15648 1-487): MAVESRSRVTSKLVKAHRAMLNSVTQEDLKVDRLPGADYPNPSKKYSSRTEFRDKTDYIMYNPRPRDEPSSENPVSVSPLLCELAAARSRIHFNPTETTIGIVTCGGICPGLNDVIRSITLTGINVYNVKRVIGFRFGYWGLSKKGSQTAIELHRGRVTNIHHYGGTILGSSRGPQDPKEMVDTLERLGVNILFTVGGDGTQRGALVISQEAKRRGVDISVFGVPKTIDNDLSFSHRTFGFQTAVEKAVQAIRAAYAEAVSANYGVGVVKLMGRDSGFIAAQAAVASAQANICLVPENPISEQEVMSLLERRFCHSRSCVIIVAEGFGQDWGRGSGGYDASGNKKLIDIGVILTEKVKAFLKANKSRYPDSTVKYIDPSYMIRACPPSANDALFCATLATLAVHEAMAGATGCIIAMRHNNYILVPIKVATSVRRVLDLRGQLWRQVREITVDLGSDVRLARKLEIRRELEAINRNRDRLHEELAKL
Assay: ALDO/G3PDH/TIM linked enzyme assay for measuring PFK inhibition
Assay type: biochemical
Set-up: key: absorbance at 340 nm (NADH)
Description: In the PFK/PYK/LDH assay, the linked PYK activity acts to convert the ADP produced by PFK back to ATP. As ATP is an inhibitor of human PFK (but not TbPFK) at concentrations higher than ~0.5 mM the regeneration of ATP is likely to affect the assay readout. An alternative linked assay was therefore developed using PFK/aldolase (ALDO)/glycerol-3-phosphate dehydrogenase (G3PD)/triosephosphate isomerase (TIM). In this assay F16BP produced by PFK is subsequently converted by aldolase into dihydroxyacetone phosphate (DHAP) and glyceraldehyde 3-phosphate (GA3P). TIM interconverts GA3P and DHAP, and DHAP is reduced to glycerol 3-phosphate by G3PD, alongside the oxidation of NADH to NAD^+, which was measured by observing the change in UV absorbance at 340 nm for 10 minutes at 25° C using a Spectramax© M5 Multimode plate reader.
The assay buffer consisted of 50 mM TEA, 100 mM KCl, 10 mM MgCl2, 10% glycerol, 1 mM Tris(2-carboxyethyl)phosphine (TCEP), pH 7.4. Assay mix consisted of 5 U/ml G3PD (Sigma-Aldrich G6880), 2.5 U/ml ALDO (Sigma-Aldrich A2714), 25 U/ml TIM (Sigma-Aldrich T6258), and 1.25 mM NADH. ATP and F6P were obtained from Sigma-Aldrich (A2383 and F3627, respectively). All ligands and substrates (including ATP) were used at pH 7.4). 40 µl of assay mix, followed by 45 µl assay buffer, 4 µl of 0.1 mg/ml PFK and 1 µl of 100x serially diluted inhibitors were added to a non-binding, clear 96-well plate (Greiner Bio-One 655901) and incubated at RT for 10 minutes. The reaction was started by addition of 10 µl of 6 mM F6P (Supplementary Table 1).

Question: What does the source list for `CN(C)CCn1ccc2c(ccn2Cc2ccc(Cl)c(Cl)c2)c1=O` [CTCB 405]?
Answer: TbPFK reaction time course reading (Figure 6a) (0.02 uM CTCB 405, time 0.0173611): 0.6954 and 0.6527; TbPFK reaction time course reading (Figure 6a) (0.02 uM CTCB 405, time 0.0347222): 0.668 and 0.6264; TbPFK reaction time course reading (Figure 6a) (0.02 uM CTCB 405, time 0.0520833): 0.6421 and 0.6005; TbPFK reaction time course reading (Figure 6a) (0.02 uM CTCB 405, time 0.0694444): 0.6155 and 0.5748; TbPFK reaction time course reading (Figure 6a) (0.02 uM CTCB 405, time 0.0868056): 0.59 and 0.5512; TbPFK reaction time course reading (Figure 6a) (0.02 uM CTCB 405, time 0.208333): 0.4552 and 0.4221; TbPFK reaction time course reading (Figure 6a) (0.02 uM CTCB 405, time 0.225694): 0.4411 and 0.4086; TbPFK reaction time course reading (Figure 6a) (0.02 uM CTCB 405, time 0.243056): 0.4276 and 0.3957; TbPFK reaction time course reading (Figure 6a) (0.02 uM CTCB 405, time 0.260417): 0.4151 and 0.3839; TbPFK reaction time course reading (Figure 6a) (0.02 uM CTCB 405, time 0.277778): 0.4041 and 0.3729; TbPFK reaction time course reading (Figure 6a) (0.02 uM CTCB 405, time 0.295139): 0.393 and 0.3626; TbPFK reaction time course reading (Figure 6a) (0.02 uM CTCB 405, time 0.3125): 0.3829 and 0.3531; TbPFK reaction time course reading (Figure 6a) (0.02 uM CTCB 405, time 0.329861): 0.3734 and 0.3443; TbPFK reaction time course reading (Figure 6a) (0.02 uM CTCB 405, time 0.347222): 0.3647 and 0.3359; TbPFK reaction time course reading (Figure 6a) (0.02 uM CTCB 405, time 0.364583): 0.3566 and 0.3283; TbPFK reaction time course reading (Figure 6a) (0.02 uM CTCB 405, time 0.381944): 0.3485 and 0.3209; TbPFK reaction time course reading (Figure 6a) (0.02 uM CTCB 405, time 0.399306): 0.3417 and 0.3141; TbPFK reaction time course reading (Figure 6a) (0.02 uM CTCB 405, time 0.416667): 0.3347 and 0.3075; TbPFK reaction time course reading (Figure 6a) (0.05 uM CTCB 405, time 0.0173611): 0.7223 and 0.6756; TbPFK reaction time course reading (Figure 6a) (0.05 uM CTCB 405, time 0.0347222): 0.7007 and 0.6527; TbPFK reaction time course reading (Figure 6a) (0.05 uM CTCB 405, time 0.0520833): 0.6774 and 0.631; TbPFK reaction time course reading (Figure 6a) (0.05 uM CTCB 405, time 0.0694444): 0.655 and 0.6101; TbPFK reaction time course reading (Figure 6a) (0.05 uM CTCB 405, time 0.0868056): 0.634 and 0.5888; TbPFK reaction time course reading (Figure 6a) (0.05 uM CTCB 405, time 0.208333): 0.5056 and 0.4691; TbPFK reaction time course reading (Figure 6a) (0.05 uM CTCB 405, time 0.225694): 0.4915 and 0.4552; TbPFK reaction time course reading (Figure 6a) (0.05 uM CTCB 405, time 0.243056): 0.4792 and 0.4424; TbPFK reaction time course reading (Figure 6a) (0.05 uM CTCB 405, time 0.260417): 0.4665 and 0.4301; TbPFK reaction time course reading (Figure 6a) (0.05 uM CTCB 405, time 0.277778): 0.4541 and 0.4185; TbPFK reaction time course reading (Figure 6a) (0.05 uM CTCB 405, time 0.295139): 0.4426 and 0.4074; TbPFK reaction time course reading (Figure 6a) (0.05 uM CTCB 405, time 0.3125): 0.4316 and 0.3967; TbPFK reaction time course reading (Figure 6a) (0.05 uM CTCB 405, time 0.329861): 0.4203 and 0.3871; TbPFK reaction time course reading (Figure 6a) (0.05 uM CTCB 405, time 0.347222): 0.4095 and 0.3781; TbPFK reaction time course reading (Figure 6a) (0.05 uM CTCB 405, time 0.364583): 0.3992 and 0.3696; TbPFK reaction time course reading (Figure 6a) (0.05 uM CTCB 405, time 0.381944): 0.3902 and 0.3609; TbPFK reaction time course reading (Figure 6a) (0.05 uM CTCB 405, time 0.399306): 0.3817 and 0.3533; TbPFK reaction time course reading (Figure 6a) (0.05 uM CTCB 405, time 0.416667): 0.3738 and 0.3459; TbPFK reaction time course reading (Figure 6a) (0.43 uM CTCB 405, time 0.0173611): 0.7862 and 0.7538; TbPFK reaction time course reading (Figure 6a) (0.43 uM CTCB 405, time 0.0347222): 0.7839 and 0.7503; TbPFK reaction time course reading (Figure 6a) (0.43 uM CTCB 405, time 0.0520833): 0.7808 and 0.748; TbPFK reaction time course reading (Figure 6a) (0.43 uM CTCB 405, time 0.0694444): 0.777 and 0.7459; TbPFK reaction time course reading (Figure 6a) (0.43 uM CTCB 405, time 0.0868056): 0.7745 and 0.7417; TbPFK reaction time course reading (Figure 6a) (0.43 uM CTCB 405, time 0.225694): 0.7425 and 0.7133; TbPFK reaction time course reading (Figure 6a) (0.43 uM CTCB 405, time 0.243056): 0.738 and 0.7079; TbPFK reaction time course reading (Figure 6a) (0.43 uM CTCB 405, time 0.260417): 0.7348 and 0.7042; TbPFK reaction time course reading (Figure 6a) (0.43 uM CTCB 405, time 0.277778): 0.7295 and 0.6999; TbPFK reaction time course reading (Figure 6a) (0.43 uM CTCB 405, time 0.295139): 0.7252 and 0.696; TbPFK reaction time course reading (Figure 6a) (0.43 uM CTCB 405, time 0.3125): 0.7216 and 0.6905; TbPFK reaction time course reading (Figure 6a) (0.43 uM CTCB 405, time 0.329861): 0.7163 and 0.6868; TbPFK reaction time course reading (Figure 6a) (0.43 uM CTCB 405, time 0.347222): 0.7115 and 0.6824; TbPFK reaction time course reading (Figure 6a) (0.43 uM CTCB 405, time 0.364583): 0.7074 and 0.6774; TbPFK reaction time course reading (Figure 6a) (0.43 uM CTCB 405, time 0.381944): 0.7033 and 0.6732; TbPFK reaction time course reading (Figure 6a) (0.43 uM CTCB 405, time 0.399306): 0.699 and 0.6691; TbPFK reaction time course reading (Figure 6a) (0.43 uM CTCB 405, time 0.416667): 0.6942 and 0.6647; TbPFK reaction time course reading (Figure 6a) (1.29 uM CTCB 405, time 0.0173611): 0.8099 and 0.7689; TbPFK reaction time course reading (Figure 6a) (1.29 uM CTCB 405, time 0.0347222): 0.8089 and 0.7697; TbPFK reaction time course reading (Figure 6a) (1.29 uM CTCB 405, time 0.0520833): 0.8094 and 0.7682; TbPFK reaction time course reading (Figure 6a) (1.29 uM CTCB 405, time 0.0694444): 0.8092 and 0.769; TbPFK reaction time course reading (Figure 6a) (1.29 uM CTCB 405, time 0.0868056): 0.8086 and 0.769; TbPFK reaction time course reading (Figure 6a) (1.29 uM CTCB 405, time 0.208333): 0.804 and 0.7671; TbPFK reaction time course reading (Figure 6a) (1.29 uM CTCB 405, time 0.225694): 0.8037 and 0.7653; TbPFK reaction time course reading (Figure 6a) (1.29 uM CTCB 405, time 0.243056): 0.8025 and 0.7652; TbPFK reaction time course reading (Figure 6a) (1.29 uM CTCB 405, time 0.260417): 0.8007 and 0.7645
